{"source": "patent US20030153539A1", "about": "“Method to potentiate the therapeutic efficacy of taxane and derivatives thereof” (priority 2000, published 2003)", "assay": "Plasma levels after high doses of estramustine phosphate", "conditions": "doses of estramustine phosphate up to 2000 mg/m^2", "note": "Some results were stated once for a whole list of compounds, not compound by compound. At least one structure is not confirmed: it was looked up by name or label, or the drawing left a doubt."}
{"smiles": "C[C@]12CC[C@@H]3c4ccc(OC(=O)N(CCCl)CCCl)cc4CC[C@H]3[C@@H]1CC[C@@H]2O", "note": "[Estramustine, estramustine]", "values": [{"measurement": "plasma levels", "result": "above 10 μM"}]}
{"smiles": "C[C@]12CC[C@@H]3c4ccc(OC(=O)N(CCCl)CCCl)cc4CC[C@H]3[C@@H]1CCC2=O", "note": "[Estromustine, estromustine]", "values": [{"measurement": "plasma levels", "result": "above 10 μM"}]}
